These are yes or no findings as the source states them, for the method shown. In cells and extracts the contact can be indirect. A yes stands for co-enrichment or nearness to the bait. Other partners may have been found.
Assays:
BioID1-VPS35L = BioID1-VPS35L (UniProt Q7Z3J2); assay: proximity labelling; BioID1-tagged bait in KO HeLa, 24 h biotin, streptavidin isolation, 10-plex TMT nano-LC-MS/MS, 6 repeats, compared with cytosolic BioID1; cut-off log2 FC ≥ 0.8 and p < 0.05
VPS35L-BioID1 = VPS35L-BioID1 (UniProt Q7Z3J2); assay: as above

binding (BioID1-VPS35L): binds | binding (VPS35L-BioID1): binds
B1: WASH2P (protein, UniProt Q6VEQ5 1-465)
chain: MTPVRMQHSLAGQTYAVPLIQPDLRREEAVQQMADALQYLQKVSGDIFSRISQQVEQSRSQVQAIGEKVSLAQAKIEKIKGSKKAIKVFSSAKYPAPERLQEYGSIFTGAQDPGLQRRPRHRIQSKHRPLDERALQEKLKDFPVCVSTKPEPEDDAEEGLGGLPSNISSVSSLLLFNTTENLYKKYVFLDPLAGAVTKTHVMLGAETEEKLFDAPLSISKREQLEQQVPENYFYVPDLGQVPEIDVPSYLPDLPGIANDLMYIADLGPGIAPSAPGTIPELPTFHTEVAEPLKVDLQDGVLTPPPPPPPPPPAPEVLASAPPLPPSTAAPVGQGARQDDSSSSASPSVQGAPREVVDPSGGRATLLESIRQAGGIGKAKLRSMKERKLEKKKQKEQEQVRATSQGGHLMSDLFNKLVMRRKGISGKGPGAGEGPGGAFARVSDSIPPLPPPQQPQAEEDEDDWES

— article PMC12311110
